Substitutions are numbered along the chain they refer to. Construct, isoform or probe ends are uncertain for at least one entry. Tags and fusion partners may be left off the protein sequences shown.
Columns and labels:
Assay in all cases: activity assay
[1] = tested on: T1, Kofu clone 5/7-C4 E377K,A633T (Artificial (KOD/Pfu chimera)); settings: M13 primer extension, 2.5 mM MgCl2, 50 C; heparin elution 41.9 mS/cm; purified recombinant protein
T1 sequence (limits assumed): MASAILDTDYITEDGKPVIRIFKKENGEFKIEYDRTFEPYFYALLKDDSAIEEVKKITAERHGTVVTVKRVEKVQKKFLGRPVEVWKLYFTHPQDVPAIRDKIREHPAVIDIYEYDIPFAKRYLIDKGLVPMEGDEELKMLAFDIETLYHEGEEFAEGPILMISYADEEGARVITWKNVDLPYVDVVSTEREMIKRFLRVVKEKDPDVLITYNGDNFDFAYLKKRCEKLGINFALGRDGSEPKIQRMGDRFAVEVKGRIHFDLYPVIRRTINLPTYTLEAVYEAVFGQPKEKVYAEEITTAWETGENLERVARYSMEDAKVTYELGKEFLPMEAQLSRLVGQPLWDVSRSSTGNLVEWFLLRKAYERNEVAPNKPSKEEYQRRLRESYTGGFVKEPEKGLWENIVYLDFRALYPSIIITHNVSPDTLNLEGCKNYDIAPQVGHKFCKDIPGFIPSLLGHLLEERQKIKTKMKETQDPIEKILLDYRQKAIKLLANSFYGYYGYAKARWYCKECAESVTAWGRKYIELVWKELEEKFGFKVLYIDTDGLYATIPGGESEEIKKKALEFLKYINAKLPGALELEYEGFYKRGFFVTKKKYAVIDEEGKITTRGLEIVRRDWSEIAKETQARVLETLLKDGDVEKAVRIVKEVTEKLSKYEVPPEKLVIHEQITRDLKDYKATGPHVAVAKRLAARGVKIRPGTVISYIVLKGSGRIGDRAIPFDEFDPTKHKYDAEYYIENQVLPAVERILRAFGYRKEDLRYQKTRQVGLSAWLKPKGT

[2] = tested on: T2, Kofu clone 11/5Hi-E5 F591L,F445I,K561E,K653R (Artificial (KOD/Pfu chimera)); settings: M13 primer extension, 2.5 mM MgCl2, 50 C; heparin elution 40.8 mS/cm; purified recombinant protein
T2 sequence (limits assumed): T1 sequence (limits assumed) with K377E, F445I, K561E, F591L, T633A, K653R

[3] = tested on: T3, Kofu clone 5/7-H2 (mutation list truncated in print after F721S) A550V,L427F,H459Q,K539R,V600A,I601F,F721S (Artificial (KOD/Pfu chimera)); settings: M13 primer extension, 2.5 mM MgCl2, 50 C; heparin elution 40.3 mS/cm; purified recombinant protein
T3 sequence (limits assumed): T1 sequence (limits assumed) with K377E, L427F, H459Q, K539R, A550V, V600A, I601F, T633A, F721S

Which activity on this sequence [1] does the source give for “AACGCCAGGGTTTTCCCAGTCACGACGTTGTAAAACGACG” here?
Its activity on this sequence is 1 fold vs Kofu.

What about the activity on this sequence [2] of the same sequence?
The activity on this sequence was 4 fold vs Kofu.

What about the activity on this sequence [3] of the same sequence?
Its activity on this sequence is 3 fold vs Kofu.

From patent publication US20110269211
